{
  "source": "paper PMC2219390",
  "about": "(The Journal of General Physiology, 1996)",
  "tested_on": "rat brain voltage-dependent sodium channels (BTX-modified)",
  "format": "biochemical",
  "data": [
    {"smiles": "CCN(CC)CC(=O)Nc1c(C)cccc1C", "note": "[lidocaine]", "values": [
      {"measurement": "block of the small subconductance channel state (~6 pS)", "setting": "30 mM lidocaine (0.2 M NaCl) or 0.4 mM QX-314 (0.5 M NaCl), Fig. 7", "result": "did not block"},
      {"measurement": "reduction in the koff rate with change of NaCl concentration", "setting": "0.5 vs 0.2 M NaCl, Table I part B", "result": 50, "unit": "%"},
      {"measurement": "kon (binding rate)", "setting": "Table I B, symmetrical 0.5 M NaCl, 150mV as printed, mean SEM, n = 3", "result": "2,124+-78 mM-1s-1"}
    ]}
  ]
}
